From patent US20260053904A1
Positions count from the first letter of the chain named. Results are given in words; binding and its absence hold for the method and conditions named. Some binding calls cover weakened binding; strength is not graded here. One block for each binder: values may come before it.

Legend:
[1] = molecular target: T1, recombinant human EpCAM extracellular domain (human) (UniProt P16422); experiment: hybridoma screening, ELISA
T1 sequence (looked up): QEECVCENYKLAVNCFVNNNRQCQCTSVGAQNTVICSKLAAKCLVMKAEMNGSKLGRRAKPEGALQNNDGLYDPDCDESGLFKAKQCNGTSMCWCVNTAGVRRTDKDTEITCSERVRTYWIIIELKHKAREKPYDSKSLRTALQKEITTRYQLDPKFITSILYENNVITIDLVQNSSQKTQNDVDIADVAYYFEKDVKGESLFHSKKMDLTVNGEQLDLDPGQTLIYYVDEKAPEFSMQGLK

[2] = molecular target: T2, human EpCAM expressed on cells (CHO, Colo205, 293) (human) (UniProt P16422); experiment: hybridoma screening on stable CHO cells expressing human EpCAM
T2 sequence (looked up): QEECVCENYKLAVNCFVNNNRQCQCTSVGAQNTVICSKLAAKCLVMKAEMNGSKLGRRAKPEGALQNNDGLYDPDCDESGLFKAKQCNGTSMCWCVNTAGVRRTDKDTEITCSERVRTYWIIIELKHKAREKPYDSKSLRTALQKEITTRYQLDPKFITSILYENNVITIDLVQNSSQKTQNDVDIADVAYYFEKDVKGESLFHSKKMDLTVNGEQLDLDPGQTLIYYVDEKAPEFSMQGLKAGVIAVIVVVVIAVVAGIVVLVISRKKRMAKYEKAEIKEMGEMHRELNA

[3] = molecular target: T3, huEpCAM-M6 (Homo sapiens) (UniProt P16422); experiment: ELISA on human EpCAM-ECD and its mutants; single bar per antigen, antibody concentration not given
T3 sequence (extracellular domain, looked up): T1 sequence (looked up) with E2R, E3D, V28Y

[4] = molecular target: T4, huEpCAM-M3 (Homo sapiens) (UniProt P16422); experiment: as above
T4 sequence (extracellular domain, looked up): T1 sequence (looked up) with V28Y

[5] = molecular target: T5, huEpCAM-M1 (Homo sapiens) (UniProt P16422); experiment: as above
T5 sequence (extracellular domain, looked up): T1 sequence (looked up) with E2R, E3D

binding [1]: binds | binding [2]: binds
B1: antibody of hybridoma clone 12C10F12 (antibody, V domains shown)
VH: QVQLQQSGAELAKPGASVKVSCKASGYTFTSYWMHWVKQRPGQGLEWIGYIRPSTGYTEYNQKFKDKATLTADKSSSTAYMQLSSLTFEDSAVYYCGRGDNWVGFANWGQGTLVTVSA
VL: QIVLTQSPAIMSASLGEEIALTCSASSSISYMHWYQQKSGTSPKLLIYSTSNLASGVPSRFSGSGSGTFYSLTISSVEAEDAADYFCHQWSTYHTFGSGTKLEIK

binding [3]: binds | binding [4]: binds | binding [5]: binds
B2: BAP-105.4-01-05 (antibody, V domains shown)
VH: EVQLVQSGAEVKKPGATVKISCKVSGYTFTSYWMHWIRQPPGKGLEWIGYIRPSTGYTEYNQKFKDRFTISRDNSKNTLYLQMNSLRAEDTAVYYCGRGDNWVGFANWGQGTLVTVSS
VL: EIVLTQSPDFQSVTPKEKVTITCSASSSISYMHWYQQKPGKAPKLLIYSTSNLASGVPDRFSGSGSGTDFTLKISRVEAEDVGVYYCHQWSTYETFGQGTKVEIK
